Results are given in words; binding and its absence hold for the method and conditions named. Some results given as binding are weak or reduced against the parent protein; the word gives no strength.
Assays:
LptB2FG complex [1] = molecular target: T1, LptB2FG complex (E. coli, UniProt P0A9V1 1-241; P0AF98 1-366; P0ADC6 1-360); test: DNP-enhanced solid-state NMR (13C-15N TEDOR); mixed-labelled 15N-LptC with 13C-LptB2FG in POPE/POPG liposomes in the ADP-VO4-trapped, the LPS-bound and the combined ADP-VO4-trapped/LPS-bound state, 100 K, 8 kHz MAS, mixing time 6.5 ms; both purified
T1 construct: LptF, transmembrane domain subunit of the lipopolysaccharide transporter, E. coli; LptG, transmembrane domain subunit of the lipopolysaccharide transporter, E. coli; Uniformly 13C-labelled for the TEDOR experiments; also called 13C-LptB2FG; ABC transporter LptB2FG; source: E. coli, co-expressed from pETDuet-1, membranes solubilised in DDM, purified (Ni-NTA); expression as previously described; …
T1 sequence (looked up) 1: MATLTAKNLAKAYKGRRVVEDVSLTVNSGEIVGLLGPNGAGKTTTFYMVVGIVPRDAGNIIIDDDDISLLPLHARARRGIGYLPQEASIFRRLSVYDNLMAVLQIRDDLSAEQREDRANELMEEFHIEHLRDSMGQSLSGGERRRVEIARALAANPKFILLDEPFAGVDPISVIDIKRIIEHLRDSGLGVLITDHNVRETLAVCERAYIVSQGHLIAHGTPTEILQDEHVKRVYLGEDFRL
T1 sequence (looked up) 2: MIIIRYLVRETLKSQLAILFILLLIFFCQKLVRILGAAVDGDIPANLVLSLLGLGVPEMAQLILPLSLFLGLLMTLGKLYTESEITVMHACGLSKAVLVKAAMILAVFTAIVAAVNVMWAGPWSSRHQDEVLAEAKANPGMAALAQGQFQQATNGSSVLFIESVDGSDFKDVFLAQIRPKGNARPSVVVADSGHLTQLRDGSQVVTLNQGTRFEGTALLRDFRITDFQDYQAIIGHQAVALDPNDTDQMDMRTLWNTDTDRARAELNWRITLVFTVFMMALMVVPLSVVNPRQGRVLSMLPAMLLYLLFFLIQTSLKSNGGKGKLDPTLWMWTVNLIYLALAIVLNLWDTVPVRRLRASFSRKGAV
T1 sequence (looked up) 3: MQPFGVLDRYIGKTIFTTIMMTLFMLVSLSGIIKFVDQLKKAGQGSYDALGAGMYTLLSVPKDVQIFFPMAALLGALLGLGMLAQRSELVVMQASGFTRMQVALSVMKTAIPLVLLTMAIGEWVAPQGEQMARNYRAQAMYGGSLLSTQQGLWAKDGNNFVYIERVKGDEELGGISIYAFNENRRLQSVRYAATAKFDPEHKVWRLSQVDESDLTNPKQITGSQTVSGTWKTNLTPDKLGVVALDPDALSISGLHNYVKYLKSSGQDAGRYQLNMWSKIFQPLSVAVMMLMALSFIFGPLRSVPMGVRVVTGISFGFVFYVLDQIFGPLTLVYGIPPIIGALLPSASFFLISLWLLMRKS

LptF (E. coli) [2] = molecular target: T2, LptF (E. coli) (UniProt P0AF98); test: as above
T2 sequence: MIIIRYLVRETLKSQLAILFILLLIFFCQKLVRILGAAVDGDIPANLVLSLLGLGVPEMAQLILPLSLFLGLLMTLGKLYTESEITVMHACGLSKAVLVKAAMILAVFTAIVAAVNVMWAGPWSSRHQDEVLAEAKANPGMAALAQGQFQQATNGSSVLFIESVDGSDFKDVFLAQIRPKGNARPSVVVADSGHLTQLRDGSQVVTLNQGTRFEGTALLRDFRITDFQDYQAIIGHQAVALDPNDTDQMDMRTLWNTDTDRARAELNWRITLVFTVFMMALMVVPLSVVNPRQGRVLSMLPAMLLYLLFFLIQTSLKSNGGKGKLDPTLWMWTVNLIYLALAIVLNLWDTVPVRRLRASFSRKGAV

[3] = molecular target: T3, LptB2FG complex (E. coli) (UniProt P0A9V1+P0AF98+P0ADC6); test: SEC; LptB2FG and LptC co-reconstituted into POPE/POPG liposomes, resolubilised in 0.5% DDM, Superdex 200 Increase 10/300 GL; compared with LptB2FG alone; both purified
T3 sequence 1: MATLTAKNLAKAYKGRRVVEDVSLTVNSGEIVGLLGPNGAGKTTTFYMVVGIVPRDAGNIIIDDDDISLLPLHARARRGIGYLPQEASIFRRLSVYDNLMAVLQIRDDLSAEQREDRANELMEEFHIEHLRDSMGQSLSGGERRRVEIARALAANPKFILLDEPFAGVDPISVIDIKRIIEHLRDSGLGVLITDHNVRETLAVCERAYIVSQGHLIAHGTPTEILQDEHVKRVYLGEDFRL
T3 sequence 2: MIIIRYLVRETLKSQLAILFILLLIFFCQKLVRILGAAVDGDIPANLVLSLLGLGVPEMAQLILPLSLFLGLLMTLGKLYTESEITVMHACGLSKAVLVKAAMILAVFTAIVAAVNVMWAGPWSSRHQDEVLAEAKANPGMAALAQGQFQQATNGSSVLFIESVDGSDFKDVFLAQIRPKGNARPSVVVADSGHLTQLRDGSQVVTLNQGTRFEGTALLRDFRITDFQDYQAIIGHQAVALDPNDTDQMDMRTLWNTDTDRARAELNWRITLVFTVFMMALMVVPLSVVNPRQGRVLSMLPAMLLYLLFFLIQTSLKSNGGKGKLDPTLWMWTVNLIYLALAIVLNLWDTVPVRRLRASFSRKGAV
T3 sequence 3: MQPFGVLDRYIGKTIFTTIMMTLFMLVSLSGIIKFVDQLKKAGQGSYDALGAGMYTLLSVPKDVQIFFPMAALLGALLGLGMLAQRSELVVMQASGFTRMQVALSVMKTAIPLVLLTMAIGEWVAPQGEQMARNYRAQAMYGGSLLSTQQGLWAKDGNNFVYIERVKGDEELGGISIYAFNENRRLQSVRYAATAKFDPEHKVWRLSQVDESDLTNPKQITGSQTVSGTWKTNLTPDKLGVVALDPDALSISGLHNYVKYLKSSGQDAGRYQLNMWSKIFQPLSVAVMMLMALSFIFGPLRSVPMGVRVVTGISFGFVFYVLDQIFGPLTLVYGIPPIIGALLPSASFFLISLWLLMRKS

LptB2FG complex [4] = molecular target: T1, LptB2FG complex; test: native gel or EMSA; blue-native PAGE (with SDS-PAGE) of the assembled LptB2FGC complex (Figure S2A,C); both purified
LptB2FG complex [5] = molecular target: T1, LptB2FG complex; test: solid-state NMR (hNCA); 15N,13C-Lys-LptC co-reconstituted 1:1 mol:mol with LptB2FG in POPE/POPG liposomes, apo state, 14 kHz MAS, 850 MHz, 270 K; compared with LptC alone in liposomes; both purified
LptB2FG complex [6] = molecular target: T1, LptB2FG complex; test: DNP-enhanced solid-state NMR (13C-15N TEDOR); mixed-labelled 15N-LptC with 13C-LptB2FG in POPE/POPG liposomes, apo state, 100 K, 8 kHz MAS, mixing time 6.5 ms; both purified
LptF (E. coli) [7] = molecular target: T2, LptF (E. coli); test: as above

Measured: binding

B1: LptC, full length with its transmembrane helix (natural protein, E. coli, UniProt P0ADV9 1-191, looked up)
chain: MSKARRWVIIVLSLAVLVMIGINMAEKDDTAQVVVNNNDPTYKSEHTDTLVYNPEGALSYRLIAQHVEYYSDQAVSWFTQPVLTTFDKDKIPTWSVKADKAKLTNDRMLYLYGHVEVNALVPDSQLRRITTDNAQINLVTQDVTSEDLVTLYGTTFNSSGLKMRGNLRSKNAELIEKVRTSYEIQNKQTQP
notes: LptC, E. coli, full length including the transmembrane helix; Isotope labelled for NMR (13C,15N-lysine or uniform 15N); also called 15N-LptC; 15N,13C-Lys-LptC; source: E. coli BL21(DE3), pBAD33.1, membranes solubilised in LS detergent, purified (Ni-NTA)
binds: LptB2FG complex [1] | LptF (E. coli) [2] | [3] | LptB2FG complex [4] | LptB2FG complex [5] | LptB2FG complex [6] | LptF (E. coli) [7]

From paper PMC12498426, “Conformational Plasticity of LptC Regulates Lipopolysaccharide Transport by the LptB2FGC Complex” (Journal of the American Chemical Society, 2025)
